The values below come from publication PMC7821181, “MS Binding Assays for Glycine Transporter 2 (GlyT2) Employing Org25543 as Reporter Ligand” (Chemmedchem, 2020).

The test system of one assay is GlyT2. To be noted: cited from earlier work.
The target in a further assay is T1, hGlyT2 (Homo sapiens, UniProt Q9Y345).
T1 construct: host or cells: HEK293 cells stably expressing hGlyT2; crude membrane fractions
T1 sequence (Q9Y345 1-797): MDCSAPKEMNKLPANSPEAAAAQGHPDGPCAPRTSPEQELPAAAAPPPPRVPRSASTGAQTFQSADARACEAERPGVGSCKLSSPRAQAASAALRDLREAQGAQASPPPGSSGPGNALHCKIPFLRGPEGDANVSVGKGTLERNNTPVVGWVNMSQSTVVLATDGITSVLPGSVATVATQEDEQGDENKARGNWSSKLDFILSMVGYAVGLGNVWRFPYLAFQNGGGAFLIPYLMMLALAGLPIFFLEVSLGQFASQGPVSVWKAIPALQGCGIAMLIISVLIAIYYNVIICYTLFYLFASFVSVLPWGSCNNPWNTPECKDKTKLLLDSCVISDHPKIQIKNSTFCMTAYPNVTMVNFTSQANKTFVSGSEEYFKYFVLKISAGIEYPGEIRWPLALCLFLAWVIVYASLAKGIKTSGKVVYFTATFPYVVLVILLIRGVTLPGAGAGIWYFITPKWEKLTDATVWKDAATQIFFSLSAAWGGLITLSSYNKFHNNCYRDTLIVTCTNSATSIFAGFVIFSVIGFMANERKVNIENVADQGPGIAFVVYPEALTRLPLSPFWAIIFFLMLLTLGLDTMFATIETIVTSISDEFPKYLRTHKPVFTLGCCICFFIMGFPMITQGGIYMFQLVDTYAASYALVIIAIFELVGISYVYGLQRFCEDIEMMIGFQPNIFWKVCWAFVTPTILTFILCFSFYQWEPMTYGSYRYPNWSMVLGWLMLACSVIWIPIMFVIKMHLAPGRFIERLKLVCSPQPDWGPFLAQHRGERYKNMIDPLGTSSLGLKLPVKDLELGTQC
The assay is described as follows: GlyT2 MS Binding Assays: competition experiments with Org25543 as reporter ligand. To be noted: Org25543 10 nM, 37 °C, 1 h; mean±SEM, n=3–5; bounds in brackets where less than 50 % inhibition; read-out: Affinity, pKi (GlyT2 MS Binding Assays) (converted). From the text: As already mentioned above, there is a strong need for competitive binding assays addressing GlyT2 as a tool for the identification of new GlyT2 inhibitors as well as the characterization of the binding affinities of the respective ligands. For the development of the desired competitive MS Binding Assay, the general concept of this kind of binding experiments was followed, in which the affinity of a test compound is delineated from its potency to compete out a reporter ligand, in our case Org25543, from its target binding site. Accordingly, the target protein was incubated with a defined concentration of the reporter ligand and increasing concentration of the individual test compound. In detail, the competitors were studied at seven different concentration levels, which covered about three concentration log units, whereas the concentration of Org25543 was fixed to 10 nM. Thereafter, via the developed LC‐ESI‐MS/MS method the amount of bound marker (total binding) was determined for the samples obtained from the individual incubation mixtures by the common workup for MS Binding Assays. Nonspecific binding was again determined in a set of analogous experiments in which GlyT2 membrane fractions were replaced by material subjected to a heat‐shock before. […] The thus determined IC50 values were finally used to calculate the corresponding K i values by means of the Cheng‐Prusoff equation. […]

Each structure is given as a SMILES string.

As to `O=C(CCCN1CCC(O)(c2ccc(Cl)cc2)CC1)c1ccc(F)cc1` [haloperidol], in the assay with GlyT2 (calcd from literature IC50), the “pIC50 (literature; calcd)” value is recorded as 4.89. Besides, the IC50 in the assay on GlyT2 (read-out: Biological activity, IC50 (literature)) is 13 ± 2 µM. Further, the Ki on hGlyT2 is 12.6 µM.

For orientation: IC50 means the midpoint of a concentration-inhibition curve.
